In patent US4555572A, “Pyrazolo[3,4,5-kl]acridine compositions and methods for their production and use” (Warner-Lambert Company, priority 1984, dated 1985):
The name of at least one read-out is uncertain.

Tested on: lymphocytic leukemia P388
Experiment: in vivo lymphocytic leukemia P388 test
Design: species or system CD2 F1 mice
Settings: 12.5 mg/kg, intraperitoneally once daily for five days; hydrate
Protocol: Another test protocol is the in vivo lymphocytic leukemia P388 test. The animals used are either male or female CD2 F1 mice, six or seven animals per test group. The tumor transplant is by intraperitoneal injection of dilute ascitic fluid containing cells of lymphocytic leukemia P388. The test compounds are administered intraperitoneally once daily for five consecutive days at various doses following tumor inoculation. The animals are weighed and survivors are recorded on a regular basis for 30 days. A compound is designated "toxic" if, at a given dose, all animals died prior to four days after the first injection of drug. A ratio of survival time for treated (T)/control (C) animals is calculated. A criterion for efficacy is a ratio T/C times 100 greater than or equal to 125. See Cancer Chemotherapy Reports, Part 3, 3, 1 (1972) for a comprehensive discussion of the protocol.

Q: Which “P388 in vivo T/C × 100” value does the source give for `COc1ccc2c(c1)-c1nn(CCN(C)C)c3c([N+](=O)[O-])cc([N+](=O)[O-])c(c13)N2` [Example 54, 9-Methoxy-N,N-dimethyl-3,5-dinitropyrazolo[3,4,5-kl]acridine-2(6H)-ethanamine, methanesulfonate (1:1), hydrate] here?
A: 232
